The results in this text go back to patent publication US20060257938A1, “Method of screening for drugs that block ligand binding to a lipid binding protein” (priority 2005, published 2006).

B1: 17V, 72A (protein, listed as Rattus norvegicus)
chain: AFDGTWKVDRNENYEKVMEKMGINVVKRKLGAHDNLKLTITQEGNKFTVKESSNFRNIDVVFELGVDFAYSAADGTELTGTWTMEGNKLVGKFKRVDNGKELIAVREISGNELIQTYTYEGVEAKRIFKKE
modifications: PEPTIDE (1)...(131) wild-type rat intestinal fatty acid binding protein
B2: 17T, 72A (protein, listed as Rattus norvegicus)
chain: AFDGTWKVDRNENYEKTMEKMGINVVKRKLGAHDNLKLTITQEGNKFTVKESSNFRNIDVVFELGVDFAYSAADGTELTGTWTMEGNKLVGKFKRVDNGKELIAVREISGNELIQTYTYEGVEAKRIFKKE
modifications: PEPTIDE (1)...(131) wild-type rat intestinal fatty acid binding protein
B3: 23H1, 72A (protein, listed as Rattus norvegicus)
chain: AFDGTWKVDRNENYEKFMEKMGHNVVKRKLGAHDNLKLTITQEGNKFTVKESSNFRNIDVVFELGVDFAYSAADGTELTGTWTMEGNKLVGKFKRVDNGKELIAVREISGNELIQTYTYEGVEAKRIFKKE
modifications: PEPTIDE (1)...(131) wild-type rat intestinal fatty acid binding protein
B4: 23P1, 72A (protein, listed as Rattus norvegicus)
chain: AFDGTWKVDRNENYEKFMEKMGPNVVKRKLGAHDNLKLTITQEGNKFTVKESSNFRNIDVVFELGVDFAYSAADGTELTGTWTMEGNKLVGKFKRVDNGKELIAVREISGNELIQTYTYEGVEAKRIFKKE
modifications: PEPTIDE (1)...(131) wild-type rat intestinal fatty acid binding protein
B5: 23N1, 72A (protein, listed as Rattus norvegicus)
chain: AFDGTWKVDRNENYEKFMEKMGNNVVKRKLGAHDNLKLTITQEGNKFTVKESSNFRNIDVVFELGVDFAYSAADGTELTGTWTMEGNKLVGKFKRVDNGKELIAVREISGNELIQTYTYEGVEAKRIFKKE
modifications: PEPTIDE (1)...(131) wild-type rat intestinal fatty acid binding protein
B6: 31I1, 72A (protein, listed as Rattus norvegicus)
chain: AFDGTWKVDRNENYEKFMEKMGINVVKRKLIAHDNLKLTITQEGNKFTVKESSNFRNIDVVFELGVDFAYSAADGTELTGTWTMEGNKLVGKFKRVDNGKELIAVREISGNELIQTYTYEGVEAKRIFKKE
modifications: PEPTIDE (1)...(131) wild-type rat intestinal fatty acid binding protein
B7: 21W, 72A (protein, listed as Rattus norvegicus)
chain: AFDGTWKVDRNENYEKFMEKWGINVVKRKLGAHDNLKLTITQEGNKFTVKESSNFRNIDVVFELGVDFAYSAADGTELTGTWTMEGNKLVGKFKRVDNGKELIAVREISGNELIQTYTYEGVEAKRIFKKE
modifications: PEPTIDE (1)...(131) wild-type rat intestinal fatty acid binding protein
B8: 23R3, 72A (protein, listed as Rattus norvegicus)
chain: AFDGTWKVDRNENYEKFMEKMGRNVVKRKLGAHDNLKLTITQEGNKFTVKESSNFRNIDVVFELGVDFAYSAADGTELTGTWTMEGNKLVGKFKRVDNGKELIAVREISGNELIQTYTYEGVEAKRIFKKE
modifications: PEPTIDE (1)...(131) wild-type rat intestinal fatty acid binding protein
B9: 31C1, 72A (protein, listed as Rattus norvegicus)
chain: AFDGTWKVDRNENYEKFMEKMGINVVKRKLCAHDNLKLTITQEGNKFTVKESSNFRNIDVVFELGVDFAYSAADGTELTGTWTMEGNKLVGKFKRVDNGKELIAVREISGNELIQTYTYEGVEAKRIFKKE
modifications: PEPTIDE (1)...(131) wild-type rat intestinal fatty acid binding protein
B10: 23L3, 72A (protein, listed as Rattus norvegicus)
chain: AFDGTWKVDRNENYEKFMEKMGLNVVKRKLGAHDNLKLTITQEGNKFTVKESSNFRNIDVVFELGVDFAYSAADGTELTGTWTMEGNKLVGKFKRVDNGKELIAVREISGNELIQTYTYEGVEAKRIFKKE
modifications: PEPTIDE (1)...(131) wild-type rat intestinal fatty acid binding protein
B11: 17W, 72A (protein, listed as Rattus norvegicus)
chain: AFDGTWKVDRNENYEKWMEKMGINVVKRKLGAHDNLKLTITQEGNKFTVKESSNFRNIDVVFELGVDFAYSAADGTELTGTWTMEGNKLVGKFKRVDNGKELIAVREISGNELIQTYTYEGVEAKRIFKKE
modifications: PEPTIDE (1)...(131) wild-type rat intestinal fatty acid binding protein
B12: 23Y1, 72A (protein, listed as Rattus norvegicus)
chain: AFDGTWKVDRNENYEKFMEKMGYNVVKRKLGAHDNLKLTITQEGNKFTVKESSNFRNIDVVFELGVDFAYSAADGTELTGTWTMEGNKLVGKFKRVDNGKELIAVREISGNELIQTYTYEGVEAKRIFKKE
modifications: PEPTIDE (1)...(131) wild-type rat intestinal fatty acid binding protein
B13: 31E3, 72A (protein, listed as Rattus norvegicus)
chain: AFDGTWKVDRNENYEKFMEKMGINVVKRKLEAHDNLKLTITQEGNKFTVKESSNFRNIDVVFELGVDFAYSAADGTELTGTWTMEGNKLVGKFKRVDNGKELIAVREISGNELIQTYTYEGVEAKRIFKKE
modifications: PEPTIDE (1)...(131) wild-type rat intestinal fatty acid binding protein
B14: 17Y, 72A (protein, listed as Rattus norvegicus)
chain: AFDGTWKVDRNENYEKYMEKMGINVVKRKLGAHDNLKLTITQEGNKFTVKESSNFRNIDVVFELGVDFAYSAADGTELTGTWTMEGNKLVGKFKRVDNGKELIAVREISGNELIQTYTYEGVEAKRIFKKE
modifications: PEPTIDE (1)...(131) wild-type rat intestinal fatty acid binding protein
B15: 23T1, 72A (protein, listed as Rattus norvegicus)
chain: AFDGTWKVDRNENYEKFMEKMGTNVVKRKLGAHDNLKLTITQEGNKFTVKESSNFRNIDVVFELGVDFAYSAADGTELTGTWTMEGNKLVGKFKRVDNGKELIAVREISGNELIQTYTYEGVEAKRIFKKE
modifications: PEPTIDE (1)...(131) wild-type rat intestinal fatty acid binding protein
B16: 23W1, 72A (protein, listed as Rattus norvegicus)
chain: AFDGTWKVDRNENYEKFMEKMGWNVVKRKLGAHDNLKLTITQEGNKFTVKESSNFRNIDVVFELGVDFAYSAADGTELTGTWTMEGNKLVGKFKRVDNGKELIAVREISGNELIQTYTYEGVEAKRIFKKE
modifications: PEPTIDE (1)...(131) wild-type rat intestinal fatty acid binding protein
B17: 23V2, 72A (protein, listed as Rattus norvegicus)
chain: AFDGTWKVDRNENYEKFMEKMGVNVVKRKLGAHDNLKLTITQEGNKFTVKESSNFRNIDVVFELGVDFAYSAADGTELTGTWTMEGNKLVGKFKRVDNGKELIAVREISGNELIQTYTYEGVEAKRIFKKE
modifications: PEPTIDE (1)...(131) wild-type rat intestinal fatty acid binding protein
B18: 31D2, 72A (protein, listed as Rattus norvegicus)
chain: AFDGTWKVDRNENYEKFMEKMGINVVKRKLDAHDNLKLTITQEGNKFTVKESSNFRNIDVVFELGVDFAYSAADGTELTGTWTMEGNKLVGKFKRVDNGKELIAVREISGNELIQTYTYEGVEAKRIFKKE
modifications: PEPTIDE (1)...(131) wild-type rat intestinal fatty acid binding protein
B19: 18Q, 72A (protein, listed as Rattus norvegicus)
chain: AFDGTWKVDRNENYEKFQEKMGINVVKRKLGAHDNLKLTITQEGNKFTVKESSNFRNIDVVFELGVDFAYSAADGTELTGTWTMEGNKLVGKFKRVDNGKELIAVREISGNELIQTYTYEGVEAKRIFKKE
modifications: PEPTIDE (1)...(131) wild-type rat intestinal fatty acid binding protein
B20: 31F2, 72A (protein, listed as Rattus norvegicus)
chain: AFDGTWKVDRNENYEKFMEKMGINVVKRKLFAHDNLKLTITQEGNKFTVKESSNFRNIDVVFELGVDFAYSAADGTELTGTWTMEGNKLVGKFKRVDNGKELIAVREISGNELIQTYTYEGVEAKRIFKKE
modifications: PEPTIDE (1)...(131) wild-type rat intestinal fatty acid binding protein
B21: 23K1, 72A (protein, listed as Rattus norvegicus)
chain: AFDGTWKVDRNENYEKFMEKMGKNVVKRKLGAHDNLKLTITQEGNKFTVKESSNFRNIDVVFELGVDFAYSAADGTELTGTWTMEGNKLVGKFKRVDNGKELIAVREISGNELIQTYTYEGVEAKRIFKKE
modifications: PEPTIDE (1)...(131) wild-type rat intestinal fatty acid binding protein
B22: 23F2, 72A (protein, listed as Rattus norvegicus)
chain: AFDGTWKVDRNENYEKFMEKMGFNVVKRKLGAHDNLKLTITQEGNKFTVKESSNFRNIDVVFELGVDFAYSAADGTELTGTWTMEGNKLVGKFKRVDNGKELIAVREISGNELIQTYTYEGVEAKRIFKKE
modifications: PEPTIDE (1)...(131) wild-type rat intestinal fatty acid binding protein

The first data set in a line: Baseline fluorescence ratio Ro of probe in absence of analyte. The settings on record: baseline fluorescence ratio of probe.
Take B1: the Ro is given as 0.305.

The data set is the same for the next values; noted with them: baseline fluorescence ratio of probe, no fatty acid.
As to B2, the AvgOfRo worked out at 0.32.

B3: the AvgOfRo was found to be 0.20.

In the case of B4, the AvgOfRo is listed as 0.32.

In the case of B1, the AvgOfRo was found to be 0.30.

Consider B5, for which the AvgOfRo was 0.22.

Consider B6, for which the AvgOfRo is on record as 0.68.

As to B7, the AvgOfRo is given as 0.60.

Turning to B8, the AvgOfRo is on record as 0.20.

As for B9, the AvgOfRo was 0.30.

For the molecule B10, the AvgOfRo was found to be 0.23.

Consider B11, for which the AvgOfRo worked out at 0.18 and the Ro is 0.175.

With B12, the AvgOfRo is 0.26.

Consider B13, for which the AvgOfRo is on record as 0.35.

With B14, the AvgOfRo was 0.65 and the Ro amounted to 0.647.

For the molecule B15, the AvgOfRo was 0.16.

With B16, the AvgOfRo is 0.45.

Regarding B17, the AvgOfRo is on record as 0.17.

Turning to B18, the AvgOfRo stood at 0.31.

B19: the AvgOfRo came to 0.22.

In the case of B20, the AvgOfRo was 0.43.

Turning to B21, the AvgOfRo was found to be 0.45.

Regarding B22, the AvgOfRo stood at 0.22.
